PMC6995549
Results are given in words; binding and its absence hold for the method and conditions named. Binding seen in cells or lysates may run through a third protein. Some binding calls cover weakened binding; strength is not graded here.

By UniProt entry, the sequences of proteins in these tests, tags left out.
UniProt O15392: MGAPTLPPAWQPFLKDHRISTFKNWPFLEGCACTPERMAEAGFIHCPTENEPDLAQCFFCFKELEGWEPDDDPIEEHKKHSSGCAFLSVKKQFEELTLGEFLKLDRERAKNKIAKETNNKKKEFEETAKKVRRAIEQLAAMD

Target: survivin (human (endogenous in Caki)) (UniProt O15392)
Assay: co-IP; endogenous proteins from Caki cells; CHAPS lysis buffer, primary antibody (anti-survivin or anti-c-FLIP) overnight, protein G agarose beads 2 h; detected by Western blotting

B1: STAM-binding protein-like 1 (enzyme, UniProt Q96FJ0 1-436)
chain: MDQPFTVNSLKKLAAMPDHTDVSLSPEERVRALSKLGCNITISEDITPRRYFRSGVEMERMASVYLEEGNLENAFVLYNKFITLFVEKLPNHRDYQQCAVPEKQDIMKKLKEIAFPRTDELKNDLLKKYNVEYQEYLQSKNKYKAEILKKLEHQRLIEAERKRIAQMRQQQLESEQFLFFEDQLKKQELARGQMRSQQTSGLSEQIDGSALSCFSTHQNNSLLNVFADQPNKSDATNYASHSPPVNRALTPAATLSAVQNLVVEGLRCVVLPEDLCHKFLQLAESNTVRGIETCGILCGKLTHNEFTITHVIVPKQSAGPDYCDMENVEELFNVQDQHDLLTLGWIHTHPTQTAFLSSVDLHTHCSYQLMLPEAIAIVCSPKHKDTGIFRLTNAGMLEVSACKKKGFHPHTKEPRLFSICKHVLVKDIKIIVLDLR
- binding: binds
